# Laboratory results: the supplement of paper PMC4604168 (melanoma cell lines)
# This is one part of the list. Single values are uncertain, as repeats are few or missing.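 Imaging used 1,536-well plates; nuclei positive for cleaved PARP by antibody were divided by total DNA-stained nuclei to yield the apoptosis fraction. Doses for screening kept most cells viable, and cell lines differ markedly in resting and induced cleaved-PARP levels.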
# System: UACC257
# Assay: cleaved PARP positive nuclei fraction relative to DMSO control; melanoma cells; higher = more apoptosis
# Conditions: library dose: low library concentration; 72 h
row,SMILES,cleaved PARP positive nuclei fraction
1,"CO[C@H]1C[C@@H]2CC[C@@H](C)[C@@](O)(O2)C(=O)C(=O)N2CCCC[C@H]2C(=O)O[C@H]([C@H](C)C[C@@H]2CC[C@@H](OCCO)[C@H](OC)C2)CC(=O)[C@H](C)/C=C(\C)[C@@H](O)[C@@H](OC)C(=O)[C@H](C)C[C@H](C)/C=C/C=C/C=C/1C [everolimus] + C[C@@H]1CCN(C(=O)CC#N)C[C@@H]1N(C)c1ncnc2[nH]ccc12 [CP690550] (first compound 0.02 µM, partner dose 1 µM)",220%
2,"CO[C@H]1C[C@@H]2CC[C@@H](C)[C@@](O)(O2)C(=O)C(=O)N2CCCC[C@H]2C(=O)O[C@H]([C@H](C)C[C@@H]2CC[C@@H](OCCO)[C@H](OC)C2)CC(=O)[C@H](C)/C=C(\C)[C@@H](O)[C@@H](OC)C(=O)[C@H](C)C[C@H](C)/C=C/C=C/C=C/1C [everolimus] + Oc1cc(-c2nc(-c3ccccc3)[nH]c2-c2ccncc2)ccc1Cl [L779450] (first compound 0.02 µM, partner dose 0.2 µM)",687%
3,"CO[C@H]1C[C@@H]2CC[C@@H](C)[C@@](O)(O2)C(=O)C(=O)N2CCCC[C@H]2C(=O)O[C@H]([C@H](C)C[C@@H]2CC[C@@H](OCCO)[C@H](OC)C2)CC(=O)[C@H](C)/C=C(\C)[C@@H](O)[C@@H](OC)C(=O)[C@H](C)C[C@H](C)/C=C/C=C/C=C/1C [everolimus] + Cn1cncc1[C@@](N)(c1ccc(Cl)cc1)c1ccc2c(c1)c(-c1cccc(Cl)c1)cc(=O)n2C [tipifarnib] (first compound 0.02 µM, partner dose 0.01 µM)",470%
4,"CO[C@H]1C[C@@H]2CC[C@@H](C)[C@@](O)(O2)C(=O)C(=O)N2CCCC[C@H]2C(=O)O[C@H]([C@H](C)C[C@@H]2CC[C@@H](OCCO)[C@H](OC)C2)CC(=O)[C@H](C)/C=C(\C)[C@@H](O)[C@@H](OC)C(=O)[C@H](C)C[C@H](C)/C=C/C=C/C=C/1C [everolimus] + NCC(=O)Nc1ccc(-n2nc(C(F)(F)F)cc2-c2ccc3c(ccc4ccccc43)c2)cc1 [OSU03012] (first compound 0.02 µM, partner dose 1 µM)",95.2%
5,"CO[C@H]1C[C@@H]2CC[C@@H](C)[C@@](O)(O2)C(=O)C(=O)N2CCCC[C@H]2C(=O)O[C@H]([C@H](C)C[C@@H]2CC[C@@H](OCCO)[C@H](OC)C2)CC(=O)[C@H](C)/C=C(\C)[C@@H](O)[C@@H](OC)C(=O)[C@H](C)C[C@H](C)/C=C/C=C/C=C/1C [everolimus] + NC(=O)Nc1cc(-c2cccc(F)c2)sc1C(=O)N[C@H]1CCCNC1 [AZD7762] (first compound 0.02 µM, partner dose 0.02 µM)",68.1%
6,"CO[C@H]1C[C@@H]2CC[C@@H](C)[C@@](O)(O2)C(=O)C(=O)N2CCCC[C@H]2C(=O)O[C@H]([C@H](C)C[C@@H]2CC[C@@H](OCCO)[C@H](OC)C2)CC(=O)[C@H](C)/C=C(\C)[C@@H](O)[C@@H](OC)C(=O)[C@H](C)C[C@H](C)/C=C/C=C/C=C/1C [everolimus] + O=C(Nc1ccccc1)c1cc([N+](=O)[O-])ccc1Cl [GW9662] (first compound 0.02 µM, partner dose 2 µM)",202%
7,"CO[C@H]1C[C@@H]2CC[C@@H](C)[C@@](O)(O2)C(=O)C(=O)N2CCCC[C@H]2C(=O)O[C@H]([C@H](C)C[C@@H]2CC[C@@H](OCCO)[C@H](OC)C2)CC(=O)[C@H](C)/C=C(\C)[C@@H](O)[C@@H](OC)C(=O)[C@H](C)C[C@H](C)/C=C/C=C/C=C/1C [everolimus] + O=C1NC(=O)/C(=C/c2ccc(-c3ccc(F)cc3O)o2)S1 [AS252424] (first compound 0.02 µM, partner dose 1 µM)",189%
8,"CO[C@H]1C[C@@H]2CC[C@@H](C)[C@@](O)(O2)C(=O)C(=O)N2CCCC[C@H]2C(=O)O[C@H]([C@H](C)C[C@@H]2CC[C@@H](OCCO)[C@H](OC)C2)CC(=O)[C@H](C)/C=C(\C)[C@@H](O)[C@@H](OC)C(=O)[C@H](C)C[C@H](C)/C=C/C=C/C=C/1C [everolimus] + O=C(CCCCCCC(=O)Nc1ccccc1)NO [vorinostat] (first compound 0.02 µM, partner dose 0.08 µM)",211%

# System: UACC62
# Assay: as above
# Conditions: library dose: low library concentration; 72 h
row,SMILES,cleaved PARP positive nuclei fraction
1,"CO[C@H]1C[C@@H]2CC[C@@H](C)[C@@](O)(O2)C(=O)C(=O)N2CCCC[C@H]2C(=O)O[C@H]([C@H](C)C[C@@H]2CC[C@@H](OCCO)[C@H](OC)C2)CC(=O)[C@H](C)/C=C(\C)[C@@H](O)[C@@H](OC)C(=O)[C@H](C)C[C@H](C)/C=C/C=C/C=C/1C [everolimus] + c1cc(-c2cnn3cc(-c4ccc(OCCN5CCCCC5)cc4)cnc23)ccn1 [Dorsomorphin] (first compound 0.02 µM, partner dose 0.4 µM)",229%
2,"Cn1c(=O)n(-c2ccc(C(C)(C)C#N)cc2)c2c3cc(-c4cnc5ccccc5c4)ccc3ncc21 + CO[C@H]1C[C@@H]2CC[C@@H](C)[C@@](O)(O2)C(=O)C(=O)N2CCCC[C@H]2C(=O)O[C@H]([C@H](C)C[C@@H]2CC[C@@H](OCCO)[C@H](OC)C2)CC(=O)[C@H](C)/C=C(\C)[C@@H](O)[C@@H](OC)C(=O)[C@H](C)C[C@H](C)/C=C/C=C/C=C/1C [everolimus] (first compound 0.004 µM, partner dose 0.02 µM)",1020%
3,"C[C@@H](Oc1cc(-c2cnn(C3CCNCC3)c2)cnc1N)c1c(Cl)ccc(F)c1Cl [Crizotinib] + CNC(=O)c1cc(Oc2ccc(NC(=O)Nc3ccc(Cl)c(C(F)(F)F)c3)cc2)ccn1 [sorafenib] (first compound 0.2 µM, partner dose 0.4 µM)",27.1%
4,"CO[C@H]1C[C@@H]2CC[C@@H](C)[C@@](O)(O2)C(=O)C(=O)N2CCCC[C@H]2C(=O)O[C@H]([C@H](C)C[C@@H]2CC[C@@H](OCCO)[C@H](OC)C2)CC(=O)[C@H](C)/C=C(\C)[C@@H](O)[C@@H](OC)C(=O)[C@H](C)C[C@H](C)/C=C/C=C/C=C/1C [everolimus] + O=C(Nc1cccc(Cl)c1)Nc1ncc(CCNc2ncnc3ccsc23)s1 [SNS314] (first compound 0.02 µM, partner dose 0.0008 µM)",80.3%
5,"CO[C@H]1C[C@@H]2CC[C@@H](C)[C@@](O)(O2)C(=O)C(=O)N2CCCC[C@H]2C(=O)O[C@H]([C@H](C)C[C@@H]2CC[C@@H](OCCO)[C@H](OC)C2)CC(=O)[C@H](C)/C=C(\C)[C@@H](O)[C@@H](OC)C(=O)[C@H](C)C[C@H](C)/C=C/C=C/C=C/1C [everolimus] + Oc1nc(-c2ccc(C(F)(F)F)cc2)nc2c1CSCC2 [XAV939] (first compound 0.02 µM, partner dose 2 µM)",304%
6,"CO[C@H]1C[C@@H]2CC[C@@H](C)[C@@](O)(O2)C(=O)C(=O)N2CCCC[C@H]2C(=O)O[C@H]([C@H](C)C[C@@H]2CC[C@@H](OCCO)[C@H](OC)C2)CC(=O)[C@H](C)/C=C(\C)[C@@H](O)[C@@H](OC)C(=O)[C@H](C)C[C@H](C)/C=C/C=C/C=C/1C [everolimus] + Cc1nc(Nc2ncc(C(=O)Nc3c(C)cccc3Cl)s2)cc(N2CCN(CCO)CC2)n1 [dasatanib] (first compound 0.02 µM, partner dose 0.004 µM)",398%
7,"CO[C@H]1C[C@@H]2CC[C@@H](C)[C@@](O)(O2)C(=O)C(=O)N2CCCC[C@H]2C(=O)O[C@H]([C@H](C)C[C@@H]2CC[C@@H](OCCO)[C@H](OC)C2)CC(=O)[C@H](C)/C=C(\C)[C@@H](O)[C@@H](OC)C(=O)[C@H](C)C[C@H](C)/C=C/C=C/C=C/1C [everolimus] + CC1(C)NC(=O)N(c2ccc([N+](=O)[O-])c(C(F)(F)F)c2)C1=O [nilutamide] (first compound 0.02 µM, partner dose 1 µM)",149%
8,"CO[C@H]1C[C@@H]2CC[C@@H](C)[C@@](O)(O2)C(=O)C(=O)N2CCCC[C@H]2C(=O)O[C@H]([C@H](C)C[C@@H]2CC[C@@H](OCCO)[C@H](OC)C2)CC(=O)[C@H](C)/C=C(\C)[C@@H](O)[C@@H](OC)C(=O)[C@H](C)C[C@H](C)/C=C/C=C/C=C/1C [everolimus] + Nc1cccc2c1CN(C1CCC(=O)NC1=O)C2=O [lenalidomide] (first compound 0.02 µM, partner dose 1 µM)",389%
9,"CO[C@H]1C[C@@H]2CC[C@@H](C)[C@@](O)(O2)C(=O)C(=O)N2CCCC[C@H]2C(=O)O[C@H]([C@H](C)C[C@@H]2CC[C@@H](OCCO)[C@H](OC)C2)CC(=O)[C@H](C)/C=C(\C)[C@@H](O)[C@@H](OC)C(=O)[C@H](C)C[C@H](C)/C=C/C=C/C=C/1C [everolimus] + Nc1nc(F)nc2c1ncn2[C@@H]1O[C@H](CO)[C@@H](O)[C@@H]1O [fludarabine] (first compound 0.02 µM, partner dose 0.2 µM)",355%
10,"CO[C@H]1C[C@@H]2CC[C@@H](C)[C@@](O)(O2)C(=O)C(=O)N2CCCC[C@H]2C(=O)O[C@H]([C@H](C)C[C@@H]2CC[C@@H](OCCO)[C@H](OC)C2)CC(=O)[C@H](C)/C=C(\C)[C@@H](O)[C@@H](OC)C(=O)[C@H](C)C[C@H](C)/C=C/C=C/C=C/1C [everolimus] + C=CCn1c(=O)c2cnc(Nc3ccc(N4CCN(C)CC4)cc3)nc2n1-c1cccc(C(C)(C)O)n1 [MK1775] (first compound 0.02 µM, partner dose 0.02 µM)",298%

# Two entries from above, with bars between the fields.
row | SMILES | cleaved PARP positive nuclei fraction
2 | Cn1c(=O)n(-c2ccc(C(C)(C)C#N)cc2)c2c3cc(-c4cnc5ccccc5c4)ccc3ncc21 + CO[C@H]1C[C@@H]2CC[C@@H](C)[C@@](O)(O2)C(=O)C(=O)N2CCCC[C@H]2C(=O)O[C@H]([C@H](C)C[C@@H]2CC[C@@H](OCCO)[C@H](OC)C2)CC(=O)[C@H](C)/C=C(\C)[C@@H](O)[C@@H](OC)C(=O)[C@H](C)C[C@H](C)/C=C/C=C/C=C/1C [everolimus] (first compound 0.004 µM, partner dose 0.02 µM) | 1020%
3 | C[C@@H](Oc1cc(-c2cnn(C3CCNCC3)c2)cnc1N)c1c(Cl)ccc(F)c1Cl [Crizotinib] + CNC(=O)c1cc(Oc2ccc(NC(=O)Nc3ccc(Cl)c(C(F)(F)F)c3)cc2)ccn1 [sorafenib] (first compound 0.2 µM, partner dose 0.4 µM) | 27.1%
